PubChem BioAssay AID1259425 | University of Nebraska Medical Center, 2018
The whole screen tested about 14,000 reagents; this is a random part of them. Not stated in the record: the time to read-out.

Assay: 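Compare each knockdown with KSR1 silencing using changes in marker transcripts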 (primary screen)
Cell system: HCT116 human colon cancer cells
Reagent: siRNA pool against human genes, 50 nM siRNA
Detection: 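mRNA of six signature genes measured together by branched-DNA assay after 50 nM siRNA pool, blank removed, divided by geometric mean of two housekeeping genes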
Direction: BNIP3L mRNA: higher = more BNIP3L transcript after knockdown; NDRG1 mRNA: higher = more NDRG1 transcript after knockdown; BNIP3 mRNA: higher = more BNIP3 transcript after knockdown; ALDOC mRNA: higher = more ALDOC transcript after knockdown; ACSL5 mRNA: higher = more ACSL5 transcript after knockdown

target gene | BNIP3L mRNA, set 1 | NDRG1 mRNA, set 1 | BNIP3 mRNA, set 1 | ALDOC mRNA, set 1 | ACSL5 mRNA, set 1
HSPG2 | 0.149 | 0.286 | 0.268 | 0.0246 | 0.154
KRT2 | 0.138 | 0.241 | 0.462 | 0.0178 | 0.204
KCNJ12 | 0.0848 | 0.364 | 0.472 | 0.0283 | 0.12
PSG2 | 0.157 | 0.112 | 0.466 | 0.0439 | 0.216
ECM2 | 0.0891 | 0.0748 | 0.345 | 0.0235 | 0.155
DDX3X | 0.136 | 0.0649 | 0.421 | 0.0133 | 0.158
PPP1CA | 0.0527 | 0.11 | 0.271 | 0.0203 | 0.111
C8orf17 | 0.306 | 0.781 | 0.637 | 0.15 | 0.44
CAPS | 0.118 | 0.0683 | 0.449 | 0.0129 | 0.107
NSUN2 | 0.0473 | 0.361 | 0.318 | 0.0148 | 0.187
DAD1 | 0.0888 | 0.08 | 0.289 | 0.0104 | 0.138
JAM3 | 0.291 | 0.232 | 0.342 | 0.14 | 0.304
CTTNBP2NL | 0.0939 | 0.182 | 0.14 | 0.0349 | 0.0712
CHST2 | 0.138 | 0.126 | 0.262 | 0.0232 | 0.108
TAFA5 | 0.101 | 0.116 | 0.34 | 0.036 | 0.111
RCHY1 | 0.112 | 0.609 | 0.79 | 0.0335 | 0.259
HEATR5A | 0.123 | 0.136 | 0.361 | 0.0268 | 0.187
ZSCAN21 | 0.197 | 0.295 | 0.447 | 0.0196 | 0.303
POP5 | 0.149 | 0.209 | 0.288 | 0.0482 | 0.198
CD3D | 0.048 | 0.15 | 0.15 | 0.0392 | 0.161
HBP1 | 0.0467 | 0.215 | 0.356 | 0.00869 | 0.3
PLEK2 | 0.102 | 0.207 | 0.279 | 0.028 | 0.195
ARNT | 0.0622 | 0.203 | 0.295 | 0.0217 | 0.0993
IFT88 | 0.0922 | 0.112 | 0.329 | 0.0407 | 0.139
PDGFB | 0.0551 | 0.166 | 0.286 | 0.0329 | 0.102
SLC6A20 | 0.11 | 0.187 | 0.189 | 0.0376 | 0.0992
SEMA3B | 0.261 | 0.281 | 0.437 | 0.055 | 0.273
OSBPL2 | 0.14 | 0.0637 | 0.255 | 0.0297 | 0.128
FKBP4 | 0.123 | 0.151 | 0.22 | 0.045 | 0.281
SERBP1 | 0.0844 | 0.243 | 1.32 | 0.029 | 0.169
DKKL1 | 0.0807 | 0.251 | 0.307 | 0.0317 | 0.1
EPCIP | 0.0941 | 0.375 | 0.451 | 0.117 | 0.318
USP30 | 0.104 | 0.094 | 0.234 | 0.0265 | 0.148
OSBP2 | 0.0928 | 0.318 | 0.273 | 0.0304 | 0.399
TEX264 | 0.1 | 0.181 | 0.189 | 0.0388 | 0.207
GLP2R | 0.127 | 0.0596 | 0.259 | 0.0232 | 0.107
CDC6 | 0.0506 | -0.0217 | 0.234 | -0.0191 | 0.203
PIK3R2 | 0.0617 | 0.286 | 0.355 | 0.0374 | 0.255
RAB6B | 0.102 | 0.231 | 0.295 | 0.0401 | 0.19
COQ8B | 0.184 | 0.0961 | 0.247 | 0.0117 | 0.116
HOXA10 | 0.199 | 0.182 | 0.382 | 0.0122 | 0.105
LMTK1 | 0.0883 | 0.0649 | 0.327 | 0.004 | 0.392
CLGN | 0.239 | 0.279 | 0.583 | 0.0381 | 0.265
CORIN | 0.211 | 0.276 | 0.31 | 0.11 | 0.0893
WDFY1 | 0.0817 | 0.166 | 0.241 | 0.0148 | 0.231
NOS2 | 0.116 | 0.174 | 0.386 | 0.026 | 0.209
DDX4 | 0.116 | 0.172 | 0.222 | 0.0296 | 0.154
CASP3 | 0.0653 | 0.0951 | 0.171 | 0.0183 | 0.165
SELENOK | 0.0811 | 0.13 | 0.24 | 0.0127 | 0.197
ADGRB1 | 0.159 | 0.0809 | 0.385 | 0.0237 | 0.0501
